Laboratory results from paper doi:10.1101/2024.09.30.615192.
Results are given in words; binding and its absence hold for the method and conditions named. Binding seen in cells or lysates may run through a third protein. Here binding means that the protein was enriched with, or labelled near, the bait; the list need not be complete.

By UniProt entry, the sequences of proteins in these tests, tags left out. Residues count along the entry.
UniProt P35613, residues 22-385: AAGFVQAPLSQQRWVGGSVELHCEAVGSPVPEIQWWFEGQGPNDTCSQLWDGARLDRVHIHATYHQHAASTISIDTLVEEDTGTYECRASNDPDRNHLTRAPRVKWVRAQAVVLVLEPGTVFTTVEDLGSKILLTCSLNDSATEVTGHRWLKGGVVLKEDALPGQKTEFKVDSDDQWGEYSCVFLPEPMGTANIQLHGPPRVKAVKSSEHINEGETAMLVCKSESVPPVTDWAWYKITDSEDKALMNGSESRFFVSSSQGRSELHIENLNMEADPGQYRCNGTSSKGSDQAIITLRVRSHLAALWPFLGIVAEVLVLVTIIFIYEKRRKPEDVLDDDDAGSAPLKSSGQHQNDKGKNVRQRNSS

Assays:
Assay in all cases: affinity purification with mass spectrometry
MFSD8 (human) = biological target: T1, MFSD8 (human) (UniProt Q8NHS3)
T1 sequence: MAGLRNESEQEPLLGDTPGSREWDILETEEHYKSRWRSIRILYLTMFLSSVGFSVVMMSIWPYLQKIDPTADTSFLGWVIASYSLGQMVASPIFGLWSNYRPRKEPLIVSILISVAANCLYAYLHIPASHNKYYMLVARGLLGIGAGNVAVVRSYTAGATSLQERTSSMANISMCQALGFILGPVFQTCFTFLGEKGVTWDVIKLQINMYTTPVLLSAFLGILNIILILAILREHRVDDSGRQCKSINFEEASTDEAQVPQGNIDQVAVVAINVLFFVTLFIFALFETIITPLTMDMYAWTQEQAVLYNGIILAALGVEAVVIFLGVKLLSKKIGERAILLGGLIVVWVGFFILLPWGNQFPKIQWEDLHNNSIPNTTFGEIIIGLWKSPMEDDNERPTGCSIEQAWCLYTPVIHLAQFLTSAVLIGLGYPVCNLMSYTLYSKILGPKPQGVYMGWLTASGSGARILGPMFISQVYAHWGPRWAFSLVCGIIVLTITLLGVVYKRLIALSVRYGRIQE

SLCO1B3 (human) = biological target: T2, SLCO1B3 (human) (UniProt Q9NPD5)
T2 sequence: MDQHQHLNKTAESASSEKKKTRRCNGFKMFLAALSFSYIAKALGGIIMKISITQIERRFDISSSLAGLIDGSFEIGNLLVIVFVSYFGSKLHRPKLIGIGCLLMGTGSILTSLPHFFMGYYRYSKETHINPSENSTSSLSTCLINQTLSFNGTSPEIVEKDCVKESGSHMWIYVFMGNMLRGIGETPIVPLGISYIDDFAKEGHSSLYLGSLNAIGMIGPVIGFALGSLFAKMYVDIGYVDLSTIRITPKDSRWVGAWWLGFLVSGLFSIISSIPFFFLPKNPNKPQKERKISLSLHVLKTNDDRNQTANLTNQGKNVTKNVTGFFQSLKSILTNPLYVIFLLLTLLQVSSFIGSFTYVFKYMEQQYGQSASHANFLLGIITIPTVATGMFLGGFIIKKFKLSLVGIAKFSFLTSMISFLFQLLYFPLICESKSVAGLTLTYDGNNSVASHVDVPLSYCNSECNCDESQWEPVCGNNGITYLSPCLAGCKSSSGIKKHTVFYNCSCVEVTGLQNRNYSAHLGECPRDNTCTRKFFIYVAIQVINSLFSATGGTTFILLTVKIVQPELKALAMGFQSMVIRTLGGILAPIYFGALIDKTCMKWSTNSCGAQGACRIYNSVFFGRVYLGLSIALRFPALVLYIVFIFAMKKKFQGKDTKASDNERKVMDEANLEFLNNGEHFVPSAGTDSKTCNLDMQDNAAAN

SLC19A1 (human) = biological target: T3, SLC19A1 (human) (UniProt P41440)
T3 sequence: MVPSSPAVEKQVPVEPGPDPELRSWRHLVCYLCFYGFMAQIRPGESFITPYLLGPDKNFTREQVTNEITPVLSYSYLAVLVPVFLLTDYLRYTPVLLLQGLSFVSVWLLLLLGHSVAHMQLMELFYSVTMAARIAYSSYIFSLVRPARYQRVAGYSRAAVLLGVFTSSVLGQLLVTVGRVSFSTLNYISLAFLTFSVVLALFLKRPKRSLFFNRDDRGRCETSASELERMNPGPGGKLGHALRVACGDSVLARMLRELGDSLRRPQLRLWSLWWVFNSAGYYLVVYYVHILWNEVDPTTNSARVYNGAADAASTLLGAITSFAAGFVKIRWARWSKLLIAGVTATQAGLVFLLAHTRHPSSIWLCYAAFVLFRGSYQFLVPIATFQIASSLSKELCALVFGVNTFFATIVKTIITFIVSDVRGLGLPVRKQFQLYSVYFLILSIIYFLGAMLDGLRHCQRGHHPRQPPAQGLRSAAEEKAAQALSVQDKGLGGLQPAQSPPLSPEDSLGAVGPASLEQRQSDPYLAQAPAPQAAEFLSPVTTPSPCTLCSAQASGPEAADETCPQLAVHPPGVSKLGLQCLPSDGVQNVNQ

Measured: binding

Basigin (from UniProt P35613 22-385)
binds: all assays above
